Source: publication PMC10393991
These are yes or no findings as the source states them, for the method shown. Binding seen in cells or lysates may run through a third protein. Some entries that bind do so weakly or less than the wild type.

Target: T1, Small heterodimer partner (SHP; NR0B2) (mouse (endogenous in liver)) (UniProt Q62227)
T1 sequence: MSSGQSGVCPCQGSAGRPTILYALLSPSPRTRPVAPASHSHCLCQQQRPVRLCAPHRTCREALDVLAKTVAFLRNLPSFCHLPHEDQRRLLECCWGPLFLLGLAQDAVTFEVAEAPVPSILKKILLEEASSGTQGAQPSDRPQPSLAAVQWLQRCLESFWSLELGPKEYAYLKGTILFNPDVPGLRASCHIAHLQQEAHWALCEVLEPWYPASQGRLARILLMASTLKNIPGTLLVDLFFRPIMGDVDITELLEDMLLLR
Assay: co-IP; total liver protein extracts of WT and db/db mice, with or without melatonin, immunoprecipitated with SHP and CREBH antibodies (Santa Cruz) and immunoblotted; endogenous proteins

B1: Cyclic adenosine monophosphate (cAMP)-responsive element-binding protein H (CREBH) (protein, UniProt Q91XE9 1-479)
chain: MDGDIAAGKMASPVCAMAPLDSMEVLDLLFDRQDGILRNVELAEGWILAREEQKVLLNSDSDEFLNCILGPGDSDPSSPLWSPADSDSGISEDLPSDPQDTPPRSGTEPANTVARCHTREQGKGPCPSYLPSTPCPEPPRTQVQESSVAIDLDMWSTDTLYPEEPAGSPSRFNLTVKELLLSGGSGDLQQHSLAASQLLGPGSGHCQELVLTEDEKKLLAKEGVTLPTQLPLTKYEERVLKKIRRKIRNKQSAQESRKKKKEYIDGLENRMSACTAQNQELQRKVLHLEKQNLSLLEQLKHLQALVVQSTSKPAHAGTCIAVLLLSFALIILPSISPFNSNKVDSPGDFVPVRVFSRTLHNHAASRVAPDVTPGSEVPGPWPDVGTPHKGPSSGGLSADWGNFLEIPMLDNLTEELDNSTLVLANSTEDLGRATLLDWVASEPLLSPGRVGLEIPGEMWLSWVPRWLRVRLVQDALGVL
  binding: binds
